# Measured values: the supplement of paper PMC3047530
# Where “and” joins values, the source holds several entries; their conditions need not be identical. Equal values may be shown once. This is one part of the list. Repeats are few or missing, and single values can be far off.
# Test system: Geomyces destructans
# Assay: growth inhibition relative to DMSO control; higher = stronger growth inhibition
# Settings: 10 µM; 15 °C; incubation time 10 days
row,Compound,growth inhibition
1,CC(=O)N1CCN(c2ccc(OCC3COC(Cn4ccnc4)(c4ccc(Cl)cc4Cl)O3)cc2)CC1 (stereo not drawn),5.13%
2,CC1(C)C2CC(=O)O[C@@]3(C)C4=CC(=O)O[C@@H](c5ccoc5)[C@]4(C)CCC3[C@@]2(C)C=C[C@H]1O (stereo partly drawn),-11.2%
3,O=C(O)P(=O)(O)O,-6.72%
4,CCN(CC)CCCC(C)Nc1c2ccc(Cl)cc2nc2ccc(OC)cc12 (stereo not drawn),-9.19%
5,COc1cc2c(cc1OC)-c1cc3ccc(OC)c(OC)c3c[n+]1CC2,-2.1% and -9.71%
6,COC(=O)[C@H]1[C@H]2C[C@@H]3c4[nH]c5cc(OC)ccc5c4CCN3C[C@H]2C[C@@H](OC(=O)c2cc(OC)c(OC)c(OC)c2)[C@@H]1OC,-9.53%
7,CNC(=C[N+](=O)[O-])NCCSCc1ccc(CN(C)C)o1,-5.9%
8,O=c1c(-c2ccc(O)cc2)coc2cc(O)cc(O)c12,-1.49%
9,O=C1C=C2CC3(O)COc4cc(O)ccc4C3=C2C=C1O (stereo not drawn),-10.8%
10,N[C@H](Cc1ccccc1)C(=O)O,-5.73%
11,CNC[C@H](O)c1cccc(O)c1,-9.69%
12,"C[C@]12CC[C@@H](O)C[C@H]1CCc1ccccc12 [3alpha-HYDROXY-4,4-BISNOR-8,11,13-PODOCARPATRIENE]",-6.49%
13,O=C(O[C@@H]1Cc2c(O)cc(O)cc2O[C@@H]1c1cc(O)c(O)c(O)c1)c1cc(O)c(O)c(O)c1,1.18%
14,CC[C@H](CC[C@@H](C)[C@H]1CC[C@H]2[C@@H]3CC=C4C[C@@H](OC(C)=O)CC[C@]4(C)[C@H]3CC[C@]12C)C(C)C,-2.22%
15,COc1cc(C(=O)O)c2c(c1C)OC(=O)c1c(C)cc(O)c(C=O)c1O2,-8.01%
16,NS(=O)(=O)c1cc2c(cc1Cl)N=C(CSCc1ccccc1)NS2(=O)=O,-1.53%
17,CC(=O)OC/C=C(C)/C=C/C=C(C)/C=C/C1=C(C)CCCC1(C)C,-5.74%
18,O=C1C(CC[S+]([O-])c2ccccc2)C(=O)N(c2ccccc2)N1c1ccccc1 (stereo not drawn),-19.4%
19,COC(=O)c1c(C)cc(OC(=O)c2c(C)c(Cl)c(O)c(C=O)c2O)c(C)c1O,-1.95%
20,C[C@@H]1O[C@@H](Oc2c(-c3ccc(O)c(O)c3)oc3cc(O)cc(O)c3c2=O)[C@H](O)[C@H](O)[C@H]1O,-5.62%
21,O=C(O)Cc1ccccc1Nc1c(Cl)cccc1Cl,-1.05%
22,O=c1cc(-c2cc(O)c(O)c(O)c2)oc2cc(O)cc(O)c12,7.77%
23,O=c1[nH]cc(F)c(=O)[nH]1,78.6%
24,O=C(O)c1cc(=O)c2cccc(O)c2[nH]1,-0.444%

row,Compound,growth inhibition
1,C[C@]12C=CC(=O)C=C1CC[C@@H]1[C@@H]2[C@@H](O)C[C@@]2(C)[C@H]1CC[C@]2(O)C(=O)CO,-19.2%
2,CS(=O)(=O)c1ccc([C@@H](O)[C@@H](CO)NC(=O)C(Cl)Cl)cc1,-24.2%
3,N=c1ccn2c(n1)O[C@H]1[C@H](O)[C@@H](CO)O[C@H]12,-6.24%
4,CC(=O)Oc1c(C)cccc1C(=O)O,-0.686%
5,Cc1cc(C(C)(C)CC(C)(C)C)ccc1OCCOCC[N+](C)(C)Cc1ccccc1,91.3%
6,Cc1cc(NC(=O)C2=C(O)c3ccccc3S(=O)(=O)N2C)no1,-12.5%
7,CN(C)CCCN1c2ccccc2CCc2ccc(Cl)cc21,-4.78%
8,Cc1cc(OC(=O)c2c(C)cc(O)cc2O)cc(O)c1C(=O)O,-7.36%
9,COC(=O)C1=C(C)NC(C)=C(C(=O)OC)C1c1ccccc1[N+](=O)[O-],-13.9%
10,C#C[C@]1(O)CC[C@H]2[C@@H]3CCC4=CC(=O)CC[C@@H]4[C@H]3CC[C@@]21C,-8.01%
11,CO[C@@]1(NC(=O)C(C(=O)O)c2ccc(O)cc2)C(=O)N2C(C(=O)O)=C(CSc3nnnn3C)CO[C@@H]21 (stereo partly drawn),-11.7%
12,O=c1c(O)c(-c2ccccc2)oc2ccccc12,-9.14%
13,Oc1cc(O)cc(/C=C/c2ccccc2)c1,15.7%
14,C[C@@H]1CC[C@@]2(OC1)O[C@H]1C[C@H]3[C@@H]4CC[C@H]5C[C@@H](O)CC[C@]5(C)[C@H]4CC[C@]3(C)[C@H]1[C@@H]2C,-14.1%
15,Nc1ccc(S(=O)(=O)Nc2ncccn2)cc1,-15.5%
16,COC(=O)c1c(Cl)c(Cl)c(C(=O)OC)c(Cl)c1Cl,-9.27%
17,C[C@H]1NC(=O)NC1=O,1.3%
18,Cc1ccnc(NS(=O)(=O)c2ccc(N)cc2)n1,-11.5%
19,CC1(C)C(=O)CC[C@]2(C)C1CC[C@@]13CC(CC[C@H]12)[C@](O)(CO)C3 (stereo partly drawn),-21.3%
20,COc1ccc(C[C@H](N)C(=O)N[C@H]2[C@@H](O)[C@H](n3cnc4c(N(C)C)ncnc43)O[C@@H]2CO)cc1,-7.34%
21,O=C(O)CN(CC(=O)O)Cc1cc2c(cc1O)Oc1cc(O)c(CN(CC(=O)O)CC(=O)O)cc1C21OC(=O)c2ccccc21,-32.9%
22,Nc1ccc(S(=O)(=O)Nc2cnc3ccccc3n2)cc1,-3.66%
23,CC(=O)Oc1ccccc1C(=O)Oc1ccccc1C(=O)O,-13.6%
24,COc1c(C(C)C)oc2cc3oc(=O)ccc3cc12,-1.28%

row,Compound,growth inhibition
1,CCCCNc1cc(C(=O)O)cc(S(N)(=O)=O)c1Oc1ccccc1,-4.1%
2,CC(=O)O[C@@H]1CC2C(C)(C)C=CC(=O)[C@]2(C)C2CC[C@@]3(C)[C@H](c4ccoc4)OC(=O)C4OC43[C@@]21C (stereo partly drawn),-10.4%
3,CC[C@H](C)C(=O)O[C@H]1C[C@@H](C)C=C2C=C[C@H](C)[C@H](CC[C@@H]3C[C@@H](O)CC(=O)O3)[C@H]21,-9.53%
4,CN=C(N)NCCCC(N)C(=O)O (stereo not drawn),-39.2%
5,CCN(CC)CCOC(=O)c1ccc(N)cc1,-20.5%
6,O=c1cc(-c2ccccc2)oc2cc(O)c(O)c(O)c12,-13.2%
7,COc1cc(OC)c2c(c1)O[C@H](c1cc(OC)c(OC)c(OC)c1)[C@H](OC(=O)c1cc(OC)c(OC)c(OC)c1)C2,-2.34%
8,COc1cccc(-c2cc(=O)c3cc(OC)ccc3o2)c1,-6.51%
9,CC(=O)O[C@H]1C[C@@]2(C)[C@@H](C[C@@H](O)[C@H]3[C@@]4(C)CC[C@@H](O)[C@@H](C)[C@@H]4CC[C@@]32C)/C1=C(\CCC=C(C)C)C(=O)O,6.2%
10,CC(=O)N[C@@H](CS)C(=O)O,-10.1%
11,CNCCCC12CCC(c3ccccc31)c1ccccc12,4.06%
12,OC(c1cc(C(F)(F)F)nc2c(C(F)(F)F)cccc12)C1CCCCN1 (stereo not drawn),-2.53%
13,O=C(O[C@@H]1Cc2c(O)cc(O)cc2O[C@@H]1c1ccc(O)c(O)c1)c1cc(O)c(O)c(O)c1,2.28%
14,CCCCCC(=O)O[C@]1(C(C)=O)CC[C@H]2[C@@H]3CCC4=CC(=O)CC[C@]4(C)[C@H]3CC[C@@]21C,3.75%
15,COc1ccc(C(=O)O)c(O)c1OC,-2.67%
16,Cc1cc(C)cc(OCC2CNC(=O)O2)c1 (stereo not drawn),-12.2%
17,C[C@]12C=CC(=O)C=C1CC[C@H]1[C@@H]3C[C@@H](O)[C@](O)(C(=O)CO)[C@@]3(C)C[C@H](O)[C@@]12F,-15.7%
18,CC1(C)O[C@@H]2C[C@H]3[C@@H]4CCC5=CC(=O)CC[C@]5(C)[C@@]4(F)[C@@H](O)C[C@]3(C)[C@]2(C(=O)CCl)O1,-11.4%
19,O=C(O)C=C1CCCc2ccccc2C1O (stereo not drawn),-7.83%
20,CC(=O)CCCCn1c(=O)c2c(ncn2C)n(C)c1=O,-14.6%
21,C=C1[C@@H]([C@@]2(C)C=CC(=O)C(C)(C)[C@@H]2CC(=O)OC)CC[C@@]2(C)[C@H](c3ccoc3)OC(=O)[C@H]3O[C@]132,11.1%
22,O=c1c(-c2ccc(O)cc2)coc2cc(O)ccc12,-1.11%
23,CCN1CCCC(OC(=O)C(c2ccccc2)c2ccccc2)C1 (stereo not drawn),-7.98%
24,Nc1ccc(C(=O)O)cc1,-39.1%

row,Compound,growth inhibition
1,CC(C)c1ccc2c(c1)CC[C@H]1[C@](C)(CN)CCC[C@]21C,-11.7%
2,O=C(O)c1ccc(S(=O)(=O)N(Cl)Cl)cc1,-1.59%
3,O=C(Oc1ccccc1C(=O)O)c1ccccc1O,-5.74%
4,CCCCCNC(=N)N/N=C/c1c[nH]c2ccc(OC)cc12,-11.5%
5,C/C1=C2/[N-][C@H]([C@H](CC(N)=O)[C@@]2(C)CCC(=O)NC[C@@H](C)OP(=O)([O-])O[C@H]2[C@@H](O)[C@@H](n3cnc4cc(C)c(C)cc43)O[C@@H]2CO)[C@]2(C)N=C(/C(C)=C3N=C(/C=C4N=C1[C@@H](CCC(N)=O)C\4(C)C)[C@@H](CCC(N)=O)[C@]\3(C)CC(N)=O)[C@@H](CCC(N)=O)[C@]2(C)CC(N)=O.[Co],-8.7%
6,O=C(CCc1ccc(O)cc1)c1c(O)cc(O)cc1O[C@@H]1OC(CO)[C@@H](O)[C@@H](O)C1O (stereo partly drawn),-11.7%
7,COc1ccc(-c2coc3cc(O)ccc3c2=O)c(OC)c1O,-9.24%
8,CCCC1O[C@@H]2C[C@H]3[C@@H]4CCC5=CC(=O)C=C[C@]5(C)[C@H]4[C@@H](O)C[C@]3(C)[C@]2(C(=O)CO)O1 (stereo partly drawn),-14.7%
9,CCC/C=C/C=C/C1C[C@@H](O)[C@@H](O)C(=O)[C@H]1C=O (stereo partly drawn),-6.12%
10,C=C1C(=O)O[C@H]2C[C@@H]1C(OC(C)=O)C/C(C)=C/CC/C(C)=C/CC[C@@]2(C)O (stereo partly drawn),1.06%
11,CC(C)c1c(O)ccc2c1CC[C@H]1C(C)(C)CCC[C@]21C,-2.22%
12,CC(C(=O)O)c1cccc(C(=O)c2ccccc2)c1 (stereo not drawn),-9.6%
13,CC1(O)/C=C\C=C(\CO)C2CC(C)(C)C2(O)CC1 (stereo not drawn),-35.9%
14,CCC(C(N)=O)c1ccccc1 (stereo not drawn),-24.4%
15,COc1cc2c(cc1OC)C1(O)C(=O)c3ccc(O)c(C(=O)O)c3OC1CO2 (stereo not drawn),-11.9%
16,"CC1=CCC2C3(C)C1=CC(=O)OC3CC1C(C)(C)CC(O)C(O)C12C (stereo not drawn) [MEROGEDUNIN, 3-DEOXO-1alpha,3alpha-DIHYDROXYDIHYDRO-]",-9.65%
17,CC1(C)CC23C(=O)CCC(O)C2(C)CCC13 (stereo not drawn),-5.57%
18,CC(C)=CC1C(CO)C1(C)C (stereo not drawn),-5.18%
19,Cc1occc(=O)c1O,-9.9%
20,C#C[C@]1(O)CC[C@H]2[C@@H]3CCc4cc(O)ccc4[C@H]3CC[C@@]21C,-9.44%
21,CCCCCN(CCCCC)C(=O)C(CCC(=O)O)NC(=O)c1ccc(Cl)c(Cl)c1 (stereo not drawn),-25.4%

# Structures from the list above that have nitrogen in an aromatic ring (17):
row,Compound,growth inhibition
1,CC(=O)N1CCN(c2ccc(OCC3COC(Cn4ccnc4)(c4ccc(Cl)cc4Cl)O3)cc2)CC1 (stereo not drawn),5.13%
4,CCN(CC)CCCC(C)Nc1c2ccc(Cl)cc2nc2ccc(OC)cc12 (stereo not drawn),-9.19%
5,COc1cc2c(cc1OC)-c1cc3ccc(OC)c(OC)c3c[n+]1CC2,-2.1% and -9.71%
6,COC(=O)[C@H]1[C@H]2C[C@@H]3c4[nH]c5cc(OC)ccc5c4CCN3C[C@H]2C[C@@H](OC(=O)c2cc(OC)c(OC)c(OC)c2)[C@@H]1OC,-9.53%
23,O=c1[nH]cc(F)c(=O)[nH]1,78.6%
24,O=C(O)c1cc(=O)c2cccc(O)c2[nH]1,-0.444%
3,N=c1ccn2c(n1)O[C@H]1[C@H](O)[C@@H](CO)O[C@H]12,-6.24%
6,Cc1cc(NC(=O)C2=C(O)c3ccccc3S(=O)(=O)N2C)no1,-12.5%
11,CO[C@@]1(NC(=O)C(C(=O)O)c2ccc(O)cc2)C(=O)N2C(C(=O)O)=C(CSc3nnnn3C)CO[C@@H]21 (stereo partly drawn),-11.7%
15,Nc1ccc(S(=O)(=O)Nc2ncccn2)cc1,-15.5%
18,Cc1ccnc(NS(=O)(=O)c2ccc(N)cc2)n1,-11.5%
20,COc1ccc(C[C@H](N)C(=O)N[C@H]2[C@@H](O)[C@H](n3cnc4c(N(C)C)ncnc43)O[C@@H]2CO)cc1,-7.34%
22,Nc1ccc(S(=O)(=O)Nc2cnc3ccccc3n2)cc1,-3.66%
12,OC(c1cc(C(F)(F)F)nc2c(C(F)(F)F)cccc12)C1CCCCN1 (stereo not drawn),-2.53%
20,CC(=O)CCCCn1c(=O)c2c(ncn2C)n(C)c1=O,-14.6%
4,CCCCCNC(=N)N/N=C/c1c[nH]c2ccc(OC)cc12,-11.5%
5,C/C1=C2/[N-][C@H]([C@H](CC(N)=O)[C@@]2(C)CCC(=O)NC[C@@H](C)OP(=O)([O-])O[C@H]2[C@@H](O)[C@@H](n3cnc4cc(C)c(C)cc43)O[C@@H]2CO)[C@]2(C)N=C(/C(C)=C3N=C(/C=C4N=C1[C@@H](CCC(N)=O)C\4(C)C)[C@@H](CCC(N)=O)[C@]\3(C)CC(N)=O)[C@@H](CCC(N)=O)[C@]2(C)CC(N)=O.[Co],-8.7%

# 2 compounds drawn at random from those above:
row,Compound,growth inhibition
16,"CC1=CCC2C3(C)C1=CC(=O)OC3CC1C(C)(C)CC(O)C(O)C12C (stereo not drawn) [MEROGEDUNIN, 3-DEOXO-1alpha,3alpha-DIHYDROXYDIHYDRO-]",-9.65%
1,CC(C)c1ccc2c(c1)CC[C@H]1[C@](C)(CN)CCC[C@]21C,-11.7%
